# Assay results taken from patent US8623196B2 (priority 2007, dated 2014).
# System: tyrosinase
# Assay type: biochemical
# Settings: NEST biosensor, 0.1 M phosphate buffer pH 7.0, −0.1 V
row,SMILES,concentration at which saturation was reached
1,Oc1ccccc1 [phenol],approximately 75 μM
2,Oc1ccccc1O [catechol],approximately 85 μM
